{"source": "the supplement of paper PMC4635364", "key": {"ReNCell VM [1]": {"system": "ReNCell VM", "assay": "neuronal differentiation score (DCX+ cell fraction vs untreated, manual image score) (score (-3 to 3)); higher = more neuronal differentiation", "conditions": "2 uM, 2 weeks"}, "ReNCell VM [2]": {"system": "ReNCell VM", "assay": "dopaminergic neuron differentiation score (TH+ cell fraction vs untreated, manual image score) (score (0 to 3)); higher = more TH+ dopaminergic neuron differentiation", "conditions": "2 uM, 4 weeks, BDNF 10 ng/ml + GDNF 10 ng/ml"}}, "note": "Where a name gives a salt, the structure may show the parent alone. The list shows a part of the results. This data set is noisy: repeats of one test often differ as much as different tests do.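 ReNCell VM, a human fetal ventral-midbrain neural progenitor line, was differentiated without mitogens. Blinded raters scored images stained for doublecortin (early neurons) or tyrosine hydroxylase (dopaminergic neurons) against untreated wells (0 = no change). Scores were averaged across repeats and both raters, and compounds averaging 2 or more were selected as hits for retesting.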", "data": [{"smiles": "C[C@H](O)C(=O)Nc1c(I)c(C(=O)NC(CO)CO)c(I)c(C(=O)NC(CO)CO)c1I", "note": "[Iopamidol]", "values": [{"measurement": "neuronal differentiation score", "setting": "ReNCell VM [1]; library: Prestwick", "value": "inactive: 0"}, {"measurement": "dopaminergic neuron differentiation score", "setting": "ReNCell VM [2]; library: Prestwick", "value": "inactive: 0"}]}, {"smiles": "O=C(O)CCC(=O)OC[C@@H](NC(=O)C(Cl)Cl)[C@H](O)c1ccc([N+](=O)[O-])cc1", "values": [{"measurement": "neuronal differentiation score", "setting": "ReNCell VM [1]; library: Spectrum", "value": "inactive: 0"}, {"measurement": "dopaminergic neuron differentiation score", "setting": "ReNCell VM [2]; library: Spectrum", "value": "inactive: 0"}]}, {"smiles": "CC(C)NCC(O)c1cc(O)cc(O)c1", "note": "(stereo not drawn) [Metaproterenol sulfate, orciprenaline sulfate]", "values": [{"measurement": "neuronal differentiation score", "setting": "ReNCell VM [1]; library: Prestwick", "value": "inactive: 0"}, {"measurement": "dopaminergic neuron differentiation score", "setting": "ReNCell VM [2]; library: Prestwick", "value": "inactive: 0"}]}, {"smiles": "CS(=O)(=O)OCCCCOS(C)(=O)=O", "note": "[Busulfan]", "values": [{"measurement": "neuronal differentiation score", "setting": "ReNCell VM [1]; library: Prestwick", "value": "inactive: 0"}, {"measurement": "dopaminergic neuron differentiation score", "setting": "ReNCell VM [2]; library: Prestwick", "value": "inactive: 0"}]}, {"smiles": "CC(=O)NC(Cc1ccccc1)C(=O)O", "note": "(stereo not drawn)", "values": [{"measurement": "neuronal differentiation score", "setting": "ReNCell VM [1]; library: Spectrum", "value": "inactive: 0"}, {"measurement": "dopaminergic neuron differentiation score", "setting": "ReNCell VM [2]; library: Spectrum", "value": "inactive: 0"}]}, {"smiles": "COc1cc(OC)c2c(OC)c(-c3ccc4c(c3)OCO4)c(=O)oc2c1", "values": [{"measurement": "neuronal differentiation score", "setting": "ReNCell VM [1]; library: Spectrum", "value": "inactive: 0"}, {"measurement": "dopaminergic neuron differentiation score", "setting": "ReNCell VM [2]; library: Spectrum", "value": "inactive: 0"}]}, {"smiles": "C=CCSCC1Nc2cc(Cl)c(S(N)(=O)=O)cc2S(=O)(=O)N1", "note": "(stereo not drawn)", "values": [{"measurement": "neuronal differentiation score", "setting": "ReNCell VM [1]; library: Spectrum", "value": "inactive: 0"}, {"measurement": "dopaminergic neuron differentiation score", "setting": "ReNCell VM [2]; library: Spectrum", "value": "inactive: 0"}]}, {"smiles": "CC[C@H]1OC(=O)[C@H](C)[C@@H](O[C@H]2C[C@@](C)(OC)[C@@H](O)[C@H](C)O2)[C@H](C)[C@@H](O[C@@H]2O[C@H](C)C[C@H](N(C)C)[C@H]2O)[C@](C)(OC)C[C@@H](C)C(=O)[C@H](C)[C@@H](O)[C@]1(C)O", "values": [{"measurement": "neuronal differentiation score", "setting": "ReNCell VM [1]; library: Spectrum", "value": "inactive: 0"}, {"measurement": "dopaminergic neuron differentiation score", "setting": "ReNCell VM [2]; library: Spectrum", "value": "inactive: 0"}]}, {"smiles": "O=C1NCCN1c1ncc([N+](=O)[O-])s1", "note": "[Niridazole]", "values": [{"measurement": "neuronal differentiation score", "setting": "ReNCell VM [1]; library: Prestwick", "value": "inactive: 0"}, {"measurement": "dopaminergic neuron differentiation score", "setting": "ReNCell VM [2]; library: Prestwick", "value": "inactive: 0"}]}, {"smiles": "CC(C)(CO)C(O)C(=O)NCCCO", "note": "(stereo not drawn)", "values": [{"measurement": "neuronal differentiation score", "setting": "ReNCell VM [1]; library: Spectrum", "value": "inactive: 0"}, {"measurement": "dopaminergic neuron differentiation score", "setting": "ReNCell VM [2]; library: Spectrum", "value": "inactive: 0"}]}, {"smiles": "Cc1c(Nc2ncccc2C(=O)O)cccc1C(F)(F)F", "values": [{"measurement": "neuronal differentiation score", "setting": "ReNCell VM [1]; library: Spectrum", "value": "active: 3"}, {"measurement": "dopaminergic neuron differentiation score", "setting": "ReNCell VM [2]; library: Spectrum", "value": "inactive: 0"}]}, {"smiles": "O=C(OCC(O)CO)c1ccccc1Nc1ccnc2cc(Cl)ccc12", "note": "(stereo not drawn)", "values": [{"measurement": "neuronal differentiation score", "setting": "ReNCell VM [1]; library: Spectrum", "value": "inactive: 0"}, {"measurement": "dopaminergic neuron differentiation score", "setting": "ReNCell VM [2]; library: Spectrum", "value": "inactive: 0"}]}, {"smiles": "O=C1Nc2ccccc2/C1=C1/Nc2ccccc2C1=O", "note": "[Indirubin]", "values": [{"measurement": "neuronal differentiation score", "setting": "ReNCell VM [1]; library: Phytochemical", "value": "inactive: 1"}, {"measurement": "dopaminergic neuron differentiation score", "setting": "ReNCell VM [2]; library: Phytochemical", "value": "inactive: 0"}]}, {"smiles": "CC(C)c1ccc(C(=O)c2cccs2)c(SCCCCCCCCN(C)C)n1", "values": [{"measurement": "neuronal differentiation score", "setting": "ReNCell VM [1]; library: Tocriscreen", "value": "inactive: 0"}, {"measurement": "dopaminergic neuron differentiation score", "setting": "ReNCell VM [2]; library: Tocriscreen", "value": "inactive: 0"}]}, {"smiles": "Nc1ccc(S(=O)(=O)Nc2ccnn2-c2ccccc2)cc1", "values": [{"measurement": "neuronal differentiation score", "setting": "ReNCell VM [1]; library: Spectrum", "value": "inactive: 0"}, {"measurement": "dopaminergic neuron differentiation score", "setting": "ReNCell VM [2]; library: Spectrum", "value": "inactive: 0"}]}, {"smiles": "C[C@H](N[C@@H](CCc1ccccc1)C(=O)O)C(=O)N1CCC[C@H]1C(=O)O", "values": [{"measurement": "neuronal differentiation score", "setting": "ReNCell VM [1]; library: Spectrum", "value": "inactive: 0"}, {"measurement": "dopaminergic neuron differentiation score", "setting": "ReNCell VM [2]; library: Spectrum", "value": "inactive: 0"}]}, {"smiles": "Nc1ccc2cc3ccc(N)cc3nc2c1", "values": [{"measurement": "neuronal differentiation score", "setting": "ReNCell VM [1]; library: Spectrum", "value": "inactive: 0"}, {"measurement": "dopaminergic neuron differentiation score", "setting": "ReNCell VM [2]; library: Spectrum", "value": "inactive: 0"}]}, {"smiles": "Cc1[nH]c(=O)c(C#N)cc1-c1ccc2nccn2c1", "note": "[Olprinone hydrochloride]", "values": [{"measurement": "neuronal differentiation score", "setting": "ReNCell VM [1]; library: LOPAC", "value": "inactive: 0"}, {"measurement": "dopaminergic neuron differentiation score", "setting": "ReNCell VM [2]; library: LOPAC", "value": "inactive: 0"}]}, {"smiles": "CN(C)CCC=C1c2ccccc2CCc2ccccc21", "note": "[Amitryptiline hydrochloride]", "values": [{"measurement": "neuronal differentiation score", "setting": "ReNCell VM [1]; library: Prestwick", "value": "inactive: 0"}, {"measurement": "dopaminergic neuron differentiation score", "setting": "ReNCell VM [2]; library: Prestwick", "value": "inactive: 0"}]}, {"smiles": "O=C(O)CCC/C=C\\C[C@@H]1CO[C@H](C(F)(F)F)O[C@@H]1c1ccccc1O", "values": [{"measurement": "neuronal differentiation score", "setting": "ReNCell VM [1]; library: Tocriscreen", "value": "inactive: 0"}, {"measurement": "dopaminergic neuron differentiation score", "setting": "ReNCell VM [2]; library: Tocriscreen", "value": "active: 2"}]}, {"smiles": "N=C(N)N1CCc2ccccc2C1", "values": [{"measurement": "neuronal differentiation score", "setting": "ReNCell VM [1]; library: Spectrum", "value": "inactive: 0"}, {"measurement": "dopaminergic neuron differentiation score", "setting": "ReNCell VM [2]; library: Spectrum", "value": "inactive: 0"}]}, {"smiles": "Cc1cnc(NC(=O)C2=C(O)c3ccccc3S(=O)(=O)N2C)s1", "note": "[Meloxicam]", "values": [{"measurement": "neuronal differentiation score", "setting": "ReNCell VM [1]; library: Prestwick", "value": "inactive: 0"}, {"measurement": "dopaminergic neuron differentiation score", "setting": "ReNCell VM [2]; library: Prestwick", "value": "inactive: 0"}]}, {"smiles": "O=C(NCCCN1CCC2(CC1)OCc1ccccc12)[C@H]1CCCN1Cc1ccccc1", "values": [{"measurement": "neuronal differentiation score", "setting": "ReNCell VM [1]; library: Tocriscreen", "value": "inactive: 1"}, {"measurement": "dopaminergic neuron differentiation score", "setting": "ReNCell VM [2]; library: Tocriscreen", "value": "inactive: 0"}]}, {"smiles": "COc1cc(NC(C)CCCN)c2ncccc2c1", "note": "(stereo not drawn)", "values": [{"measurement": "neuronal differentiation score", "setting": "ReNCell VM [1]; library: Spectrum", "value": "inactive: 0"}, {"measurement": "dopaminergic neuron differentiation score", "setting": "ReNCell VM [2]; library: Spectrum", "value": "inactive: 0"}]}, {"smiles": "CCn1cc(C(=O)O)c(=O)c2cc(F)c(N3CCNCC3)nc21", "note": "[Enoxacin]", "values": [{"measurement": "neuronal differentiation score", "setting": "ReNCell VM [1]; library: Prestwick", "value": "inactive: 0"}, {"measurement": "dopaminergic neuron differentiation score", "setting": "ReNCell VM [2]; library: Prestwick", "value": "inactive: 0"}]}, {"smiles": "Cc1nc(-c2coc3c(O)c(O)ccc3c2=O)cs1", "note": "[7,8-dihydroxy-3-(2-methyl-thiazol-4-yl)-chromen-4-one]", "values": [{"measurement": "neuronal differentiation score", "setting": "ReNCell VM [1]; library: Natural", "value": "inactive: -3"}, {"measurement": "dopaminergic neuron differentiation score", "setting": "ReNCell VM [2]; library: Natural", "value": "inactive: 0"}]}, {"smiles": "C=CC(C)(O)CCC1C(=C)CC(O)C2C(C)(C)CCCC12C", "note": "(stereo not drawn)", "values": [{"measurement": "neuronal differentiation score", "setting": "ReNCell VM [1]; library: Spectrum", "value": "inactive: 0"}, {"measurement": "dopaminergic neuron differentiation score", "setting": "ReNCell VM [2]; library: Spectrum", "value": "inactive: 0"}]}, {"smiles": "CC(C)NCC(O)COc1ccc(COCCOC(C)C)cc1", "note": "(stereo not drawn)", "values": [{"measurement": "neuronal differentiation score", "setting": "ReNCell VM [1]; library: Spectrum", "value": "inactive: 1"}, {"measurement": "dopaminergic neuron differentiation score", "setting": "ReNCell VM [2]; library: Spectrum", "value": "inactive: 0"}]}, {"smiles": "COc1ccc2c(c1)OCC(Cc1ccc(OC)c(OC)c1)C2=O", "note": "(stereo not drawn)", "values": [{"measurement": "neuronal differentiation score", "setting": "ReNCell VM [1]; library: Spectrum", "value": "inactive: 0"}, {"measurement": "dopaminergic neuron differentiation score", "setting": "ReNCell VM [2]; library: Spectrum", "value": "inactive: 0"}]}, {"smiles": "O=C(N[C@H](CO)[C@H](O)c1ccc([N+](=O)[O-])cc1)C(Cl)Cl", "values": [{"measurement": "neuronal differentiation score", "setting": "ReNCell VM [1]; library: Spectrum", "value": "inactive: 0"}, {"measurement": "dopaminergic neuron differentiation score", "setting": "ReNCell VM [2]; library: Spectrum", "value": "inactive: 0"}]}, {"smiles": "O=c1c(O)c(-c2ccccc2)oc2ccccc12", "values": [{"measurement": "neuronal differentiation score", "setting": "ReNCell VM [1]; library: Spectrum", "value": "inactive: 0"}, {"measurement": "dopaminergic neuron differentiation score", "setting": "ReNCell VM [2]; library: Spectrum", "value": "inactive: 0"}]}, {"smiles": "CC(C)Cc1ccc(C(C)C(=O)O)cc1", "note": "(stereo not drawn)", "values": [{"measurement": "neuronal differentiation score", "setting": "ReNCell VM [1]; library: Spectrum", "value": "inactive: 0"}, {"measurement": "dopaminergic neuron differentiation score", "setting": "ReNCell VM [2]; library: Spectrum", "value": "inactive: 0"}]}, {"smiles": "C=C1CC[C@H](O)C/C1=C/C=C1\\CCC[C@]2(C)[C@@H]([C@H](C)/C=C/[C@H](C)C(C)C)CC[C@@H]12", "values": [{"measurement": "neuronal differentiation score", "setting": "ReNCell VM [1]; library: Spectrum", "value": "inactive: 1"}, {"measurement": "dopaminergic neuron differentiation score", "setting": "ReNCell VM [2]; library: Spectrum", "value": "inactive: 0"}]}, {"smiles": "CC(=O)N(CC(O)CO)c1c(I)c(C(=O)NCC(O)CO)c(I)c(C(=O)NCC(O)CO)c1I", "note": "(stereo not drawn) [Iohexol]", "values": [{"measurement": "neuronal differentiation score", "setting": "ReNCell VM [1]; library: Prestwick", "value": "inactive: 0"}, {"measurement": "dopaminergic neuron differentiation score", "setting": "ReNCell VM [2]; library: Prestwick", "value": "inactive: 0"}]}]}
